Results published in US20140357560A1, “PTH-CONTAINING THERAPEUTIC/PROPHYLACTIC AGENT FOR OSTEOPOROSIS, CHARACTERIZED IN THAT PTH IS ADMINISTERED ONCE A WEEK IN A UNIT DOSE OF 100 TO 200 UNITS” (ASAHI KASEI PHARMA CORPORATION, priority 2009, published 2014).
Not every detail of the peptide structures is certain; ends, links or a residue may be inferred.

Experiments:
Format in all cases: in vivo, human
[1] = test system: patients diagnosed with primary osteoporosis; test: Working Example 1: lumbar spine bone mineral density by DXA, teriparatide acetate once a week
[2] = test system: patients diagnosed with primary osteoporosis; test: Working Example 1: new vertebral fractures (x-ray, method of Genant)
[3] = test system: high-risk patients diagnosed with primary osteoporosis; test: Working Example 2: CT geometry of the proximal femur (multislice CT); details: 200 units once a week
[4] = high-risk patients, 5 units once a week, After 26 W
[5] = high-risk patients, 5 units once a week, After 52 W
[6] = high-risk patients, 5 units once a week, After 78 W
[7] = high-risk patients, 5 units once a week, After 104 W
[8] = high-risk patients, 100 units once a week, After 26 W
[9] = high-risk patients, 100 units once a week, After 52 W
[10] = high-risk patients, 100 units once a week, After 78 W
[11] = high-risk patients, 100 units once a week, After 104 W
[12] = low-risk patients, 5 units once a week, After 26 W
[13] = low-risk patients, 5 units once a week, After 52 W
[14] = low-risk patients, 5 units once a week, After 78 W
[15] = high-risk patients, 5 units once a week
[16] = high-risk patients, 5 units once a week, After 130 W
[17] = high-risk patients, 100 units once a week
[18] = high-risk patients, 100 units once a week, After 130 W
[19] = low-risk patients, 5 units once a week
[20] = low-risk patients, 5 units once a week, After 104 W
[21] = low-risk patients, 5 units once a week, After 130 W
[22] = low-risk patients, 100 units once a week
[23] = low-risk patients, 100 units once a week, After 26 W
[24] = low-risk patients, 100 units once a week, After 52 W
[25] = low-risk patients, 100 units once a week, After 78 W
[26] = low-risk patients, 100 units once a week, After 104 W
[27] = low-risk patients, 100 units once a week, After 130 W

## CC[C@H](C)[C@H](NC(=O)[C@H](CCC(=O)O)NC(=O)[C@H](CO)NC(=O)[C@@H](NC(=O)[C@@H](N)CO)C(C)C)C(=O)N[C@@H](CCC(N)=O)C(=O)N[C@@H](CC(C)C)C(=O)N[C@@H](CCSC)C(=O)N[C@@H](Cc1c[nH]cn1)C(=O)N[C@@H](CC(N)=O)C(=O)N[C@@H](CC(C)C)C(=O)NCC(=O)N[C@@H](CCCCN)C(=O)N[C@@H](Cc1c[nH]cn1)C(=O)N[C@@H](CC(C)C)C(=O)N[C@@H](CC(N)=O)C(=O)N[C@@H](CO)C(=O)N[C@@H](CCSC)C(=O)N[C@@H](CCC(=O)O)C(=O)N[C@@H](CCCNC(=N)N)C(=O)N[C@H](C(=O)N[C@@H](CCC(=O)O)C(=O)N[C@@H](Cc1c[nH]c2ccccc12)C(=O)N[C@@H](CC(C)C)C(=O)N[C@@H](CCCNC(=N)N)C(=O)N[C@@H](CCCCN)C(=O)N[C@@H](CCCCN)C(=O)N[C@@H](CC(C)C)C(=O)N[C@@H](CCC(N)=O)C(=O)N[C@@H](CC(=O)O)C(=O)N[C@H](C(=O)N[C@@H](Cc1c[nH]cn1)C(=O)N[C@@H](CC(N)=O)C(=O)N[C@@H](Cc1ccccc1)C(=O)O)C(C)C)C(C)C [teriparatide acetate]
[1]; [4]
  Lumbar spine bone mineral density (% change): −0.9 ± 4.4%
[1]; [5]
  Lumbar spine bone mineral density (% change): −0.6 ± 4.1%
[1]; [6]
  Lumbar spine bone mineral density (% change): 0.4 ± 4.1%
[1]; [7]
  Lumbar spine bone mineral density (% change): 0.4 ± 4.0%
[1]; high-risk patients, 5 units once a week, Final check
  Lumbar spine bone mineral density (% change): −0.1 ± 4.8%
[1]; [8]
  Lumbar spine bone mineral density (% change): 3.3 ± 4.5 %
[1]; [9]
  Lumbar spine bone mineral density (% change): 4.3 ± 4.5 %
[1]; [10]
  Lumbar spine bone mineral density (% change): 4.0 ± 4.5 %
[1]; [11]
  Lumbar spine bone mineral density (% change): 4.9 ± 4.2 %
[1]; high-risk patients, 100 units once a week, Final check
  Lumbar spine bone mineral density (% change): 4.5 ± 4.6 %
[1]; [12]
  Lumbar spine bone mineral density (% change): −0.6 ± 6.4%
[1]; [13]
  Lumbar spine bone mineral density (% change): −0.7 ± 6.2%
[1]; [14]
  Lumbar spine bone mineral density (% change): 1.9 ± 7.5%
[1]; low-risk patients, 5 units once a week, Final check
  Lumbar spine bone mineral density (% change): −0.6 ± 5.7%
[1]; low-risk patients, 100 units once a week, After 26 W, only one patient, reference value
  Lumbar spine bone mineral density (% change): 3.2%
[1]; low-risk patients, 100 units once a week, After 52 W, only one patient, reference value
  Lumbar spine bone mineral density (% change): 6.1%
[1]; low-risk patients, 100 units once a week, After 78 W, only one patient, reference value
  Lumbar spine bone mineral density (% change): 12.0%
[1]; low-risk patients, 100 units once a week, Final check, only one patient, reference value
  Lumbar spine bone mineral density (% change): 12.0%
[2]; [15]
  New vertebral fractures: No. of vertebral fractures: 22
  New vertebral fractures: No. with fractures (persons): 13 persons
[2]; [4]
  New vertebral fractures every 26 weeks: Incidence (%): 9.5%
  New vertebral fractures every 26 weeks: No. of fractures: 8
  New vertebral fractures every 26 weeks: No. with fractures: 6
[2]; [5]
  New vertebral fractures every 26 weeks: Incidence (%): 11.1%
  New vertebral fractures every 26 weeks: No. of fractures: 9
  New vertebral fractures every 26 weeks: No. with fractures: 7
[2]; [6]
  New vertebral fractures every 26 weeks: Incidence (%): 7.0%
  New vertebral fractures every 26 weeks: No. of fractures: 4
  New vertebral fractures every 26 weeks: No. with fractures: 4
[2]; [7]
  New vertebral fractures every 26 weeks: Incidence (%): 2.9%
  New vertebral fractures every 26 weeks: No. of fractures: 1
  New vertebral fractures every 26 weeks: No. with fractures: 1
[2]; [16]
  New vertebral fractures every 26 weeks: No. of fractures: 0
  New vertebral fractures every 26 weeks: No. with fractures: 0
[2]; [17]
  New vertebral fractures: No. of vertebral fractures: 3
  New vertebral fractures: No. with fractures (persons): 3 persons
[2]; [8]
  New vertebral fractures every 26 weeks: Incidence (%): 2.0%
  New vertebral fractures every 26 weeks: No. of fractures: 1
  New vertebral fractures every 26 weeks: No. with fractures: 1
[2]; [9]
  New vertebral fractures every 26 weeks: Incidence (%): 2.0%
  New vertebral fractures every 26 weeks: No. of fractures: 1
  New vertebral fractures every 26 weeks: No. with fractures: 1
[2]; [10]
  New vertebral fractures every 26 weeks: Incidence (%): 2.2%
  New vertebral fractures every 26 weeks: No. of fractures: 1
  New vertebral fractures every 26 weeks: No. with fractures: 1
[2]; [11]
  New vertebral fractures every 26 weeks: No. of fractures: 0
  New vertebral fractures every 26 weeks: No. with fractures: 0
[2]; [18]
  New vertebral fractures every 26 weeks: No. of fractures: 0
  New vertebral fractures every 26 weeks: No. with fractures: 0
[2]; [19]
  New vertebral fractures: No. of vertebral fractures: 1
  New vertebral fractures: No. with fractures (persons): 1 persons
[2]; [12]
  New vertebral fractures every 26 weeks: No. of fractures: 0
  New vertebral fractures every 26 weeks: No. with fractures: 0
[2]; [13]
  New vertebral fractures every 26 weeks: Incidence (%): 4.8%
  New vertebral fractures every 26 weeks: No. of fractures: 1
  New vertebral fractures every 26 weeks: No. with fractures: 1
[2]; [14]
  New vertebral fractures every 26 weeks: No. of fractures: 0
  New vertebral fractures every 26 weeks: No. with fractures: 0
[2]; [20]
  New vertebral fractures every 26 weeks: No. of fractures: 0
  New vertebral fractures every 26 weeks: No. with fractures: 0
[2]; [21]
  New vertebral fractures every 26 weeks: No. of fractures: 0
  New vertebral fractures every 26 weeks: No. with fractures: 0
[2]; [22]
  New vertebral fractures: No. of vertebral fractures: 2
  New vertebral fractures: No. with fractures (persons): 1 persons
[2]; [23]
  New vertebral fractures every 26 weeks: Incidence (%): 8.3%
  New vertebral fractures every 26 weeks: No. of fractures: 2
  New vertebral fractures every 26 weeks: No. with fractures: 1
[2]; [24]
  New vertebral fractures every 26 weeks: No. of fractures: 0
  New vertebral fractures every 26 weeks: No. with fractures: 0
[2]; [25]
  New vertebral fractures every 26 weeks: No. of fractures: 0
  New vertebral fractures every 26 weeks: No. with fractures: 0
[2]; [26]
  New vertebral fractures every 26 weeks: No. of fractures: 0
  New vertebral fractures every 26 weeks: No. with fractures: 0
[2]; [27]
  New vertebral fractures every 26 weeks: No. of fractures: 0
  New vertebral fractures every 26 weeks: No. with fractures: 0
[3]; Neck of femur, after 48 weeks
  Buckling ratio, change from baseline (%): −3.48%
  Maximum section modulus (SM(Z min)), change from baseline (%): 3.43%
  Volume bone mineral density (cortical bone) [vBMD cortical], change from baseline (%): −0.77%
  Volume bone mineral density (total) [vBMD total], change from baseline (%): 0.92%
[3]; Neck of femur, after 72 weeks
  Buckling ratio, change from baseline (%): −3.40%
  Maximum section modulus (SM(Z min)), change from baseline (%): 1.87%
  Volume bone mineral density (total) [vBMD total], change from baseline (%): 0.15%
[3]; Shaft of femur, after 48 weeks
  Buckling ratio, change from baseline (%): −0.66%
  Maximum section modulus (SM(Z min)), change from baseline (%): 1.28%
